Laboratory results published in the supplement of paper PMC10849652.
The other results are listed elsewhere or left out.

By UniProt entry, the sequences of proteins in these tests, tags left out. Where a name states a change or a piece, a line headed by the entry shows the natural chain unless it says otherwise.
UniProt Q9BS16: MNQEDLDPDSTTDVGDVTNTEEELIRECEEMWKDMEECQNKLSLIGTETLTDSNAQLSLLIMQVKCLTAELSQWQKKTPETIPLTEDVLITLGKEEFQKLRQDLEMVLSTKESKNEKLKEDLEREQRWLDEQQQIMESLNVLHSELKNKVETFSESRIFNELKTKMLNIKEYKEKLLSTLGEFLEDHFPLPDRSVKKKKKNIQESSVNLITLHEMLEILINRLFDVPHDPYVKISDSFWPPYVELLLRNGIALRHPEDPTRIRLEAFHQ
UniProt Q96G28: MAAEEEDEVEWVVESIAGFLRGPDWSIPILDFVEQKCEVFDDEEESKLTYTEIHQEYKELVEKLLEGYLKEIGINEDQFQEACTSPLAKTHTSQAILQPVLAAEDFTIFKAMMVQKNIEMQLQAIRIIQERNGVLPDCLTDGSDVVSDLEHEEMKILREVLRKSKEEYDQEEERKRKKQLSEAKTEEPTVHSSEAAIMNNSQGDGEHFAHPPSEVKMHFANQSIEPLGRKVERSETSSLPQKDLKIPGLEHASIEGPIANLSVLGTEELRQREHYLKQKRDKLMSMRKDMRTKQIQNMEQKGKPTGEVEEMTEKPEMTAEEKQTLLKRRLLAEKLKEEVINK
UniProt Q00587: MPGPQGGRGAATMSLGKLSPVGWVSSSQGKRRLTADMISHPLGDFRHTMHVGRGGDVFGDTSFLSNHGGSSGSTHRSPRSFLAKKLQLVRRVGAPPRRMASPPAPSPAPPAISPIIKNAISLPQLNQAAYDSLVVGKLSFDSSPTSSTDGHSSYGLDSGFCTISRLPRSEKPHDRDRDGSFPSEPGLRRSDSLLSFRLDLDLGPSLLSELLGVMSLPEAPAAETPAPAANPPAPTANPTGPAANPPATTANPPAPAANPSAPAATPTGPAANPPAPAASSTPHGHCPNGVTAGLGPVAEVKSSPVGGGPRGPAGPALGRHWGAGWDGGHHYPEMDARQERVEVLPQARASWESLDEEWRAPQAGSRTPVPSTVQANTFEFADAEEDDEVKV
UniProt P50613: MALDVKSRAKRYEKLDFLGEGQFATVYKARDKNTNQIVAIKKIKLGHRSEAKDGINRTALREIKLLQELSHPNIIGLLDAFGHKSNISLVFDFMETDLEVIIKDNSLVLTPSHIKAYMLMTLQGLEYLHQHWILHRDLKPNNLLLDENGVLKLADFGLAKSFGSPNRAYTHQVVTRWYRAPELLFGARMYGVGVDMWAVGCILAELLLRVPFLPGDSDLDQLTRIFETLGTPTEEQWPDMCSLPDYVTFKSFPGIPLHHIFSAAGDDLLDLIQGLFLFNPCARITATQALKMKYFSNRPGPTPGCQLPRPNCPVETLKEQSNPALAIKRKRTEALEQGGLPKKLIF
UniProt Q5VT06: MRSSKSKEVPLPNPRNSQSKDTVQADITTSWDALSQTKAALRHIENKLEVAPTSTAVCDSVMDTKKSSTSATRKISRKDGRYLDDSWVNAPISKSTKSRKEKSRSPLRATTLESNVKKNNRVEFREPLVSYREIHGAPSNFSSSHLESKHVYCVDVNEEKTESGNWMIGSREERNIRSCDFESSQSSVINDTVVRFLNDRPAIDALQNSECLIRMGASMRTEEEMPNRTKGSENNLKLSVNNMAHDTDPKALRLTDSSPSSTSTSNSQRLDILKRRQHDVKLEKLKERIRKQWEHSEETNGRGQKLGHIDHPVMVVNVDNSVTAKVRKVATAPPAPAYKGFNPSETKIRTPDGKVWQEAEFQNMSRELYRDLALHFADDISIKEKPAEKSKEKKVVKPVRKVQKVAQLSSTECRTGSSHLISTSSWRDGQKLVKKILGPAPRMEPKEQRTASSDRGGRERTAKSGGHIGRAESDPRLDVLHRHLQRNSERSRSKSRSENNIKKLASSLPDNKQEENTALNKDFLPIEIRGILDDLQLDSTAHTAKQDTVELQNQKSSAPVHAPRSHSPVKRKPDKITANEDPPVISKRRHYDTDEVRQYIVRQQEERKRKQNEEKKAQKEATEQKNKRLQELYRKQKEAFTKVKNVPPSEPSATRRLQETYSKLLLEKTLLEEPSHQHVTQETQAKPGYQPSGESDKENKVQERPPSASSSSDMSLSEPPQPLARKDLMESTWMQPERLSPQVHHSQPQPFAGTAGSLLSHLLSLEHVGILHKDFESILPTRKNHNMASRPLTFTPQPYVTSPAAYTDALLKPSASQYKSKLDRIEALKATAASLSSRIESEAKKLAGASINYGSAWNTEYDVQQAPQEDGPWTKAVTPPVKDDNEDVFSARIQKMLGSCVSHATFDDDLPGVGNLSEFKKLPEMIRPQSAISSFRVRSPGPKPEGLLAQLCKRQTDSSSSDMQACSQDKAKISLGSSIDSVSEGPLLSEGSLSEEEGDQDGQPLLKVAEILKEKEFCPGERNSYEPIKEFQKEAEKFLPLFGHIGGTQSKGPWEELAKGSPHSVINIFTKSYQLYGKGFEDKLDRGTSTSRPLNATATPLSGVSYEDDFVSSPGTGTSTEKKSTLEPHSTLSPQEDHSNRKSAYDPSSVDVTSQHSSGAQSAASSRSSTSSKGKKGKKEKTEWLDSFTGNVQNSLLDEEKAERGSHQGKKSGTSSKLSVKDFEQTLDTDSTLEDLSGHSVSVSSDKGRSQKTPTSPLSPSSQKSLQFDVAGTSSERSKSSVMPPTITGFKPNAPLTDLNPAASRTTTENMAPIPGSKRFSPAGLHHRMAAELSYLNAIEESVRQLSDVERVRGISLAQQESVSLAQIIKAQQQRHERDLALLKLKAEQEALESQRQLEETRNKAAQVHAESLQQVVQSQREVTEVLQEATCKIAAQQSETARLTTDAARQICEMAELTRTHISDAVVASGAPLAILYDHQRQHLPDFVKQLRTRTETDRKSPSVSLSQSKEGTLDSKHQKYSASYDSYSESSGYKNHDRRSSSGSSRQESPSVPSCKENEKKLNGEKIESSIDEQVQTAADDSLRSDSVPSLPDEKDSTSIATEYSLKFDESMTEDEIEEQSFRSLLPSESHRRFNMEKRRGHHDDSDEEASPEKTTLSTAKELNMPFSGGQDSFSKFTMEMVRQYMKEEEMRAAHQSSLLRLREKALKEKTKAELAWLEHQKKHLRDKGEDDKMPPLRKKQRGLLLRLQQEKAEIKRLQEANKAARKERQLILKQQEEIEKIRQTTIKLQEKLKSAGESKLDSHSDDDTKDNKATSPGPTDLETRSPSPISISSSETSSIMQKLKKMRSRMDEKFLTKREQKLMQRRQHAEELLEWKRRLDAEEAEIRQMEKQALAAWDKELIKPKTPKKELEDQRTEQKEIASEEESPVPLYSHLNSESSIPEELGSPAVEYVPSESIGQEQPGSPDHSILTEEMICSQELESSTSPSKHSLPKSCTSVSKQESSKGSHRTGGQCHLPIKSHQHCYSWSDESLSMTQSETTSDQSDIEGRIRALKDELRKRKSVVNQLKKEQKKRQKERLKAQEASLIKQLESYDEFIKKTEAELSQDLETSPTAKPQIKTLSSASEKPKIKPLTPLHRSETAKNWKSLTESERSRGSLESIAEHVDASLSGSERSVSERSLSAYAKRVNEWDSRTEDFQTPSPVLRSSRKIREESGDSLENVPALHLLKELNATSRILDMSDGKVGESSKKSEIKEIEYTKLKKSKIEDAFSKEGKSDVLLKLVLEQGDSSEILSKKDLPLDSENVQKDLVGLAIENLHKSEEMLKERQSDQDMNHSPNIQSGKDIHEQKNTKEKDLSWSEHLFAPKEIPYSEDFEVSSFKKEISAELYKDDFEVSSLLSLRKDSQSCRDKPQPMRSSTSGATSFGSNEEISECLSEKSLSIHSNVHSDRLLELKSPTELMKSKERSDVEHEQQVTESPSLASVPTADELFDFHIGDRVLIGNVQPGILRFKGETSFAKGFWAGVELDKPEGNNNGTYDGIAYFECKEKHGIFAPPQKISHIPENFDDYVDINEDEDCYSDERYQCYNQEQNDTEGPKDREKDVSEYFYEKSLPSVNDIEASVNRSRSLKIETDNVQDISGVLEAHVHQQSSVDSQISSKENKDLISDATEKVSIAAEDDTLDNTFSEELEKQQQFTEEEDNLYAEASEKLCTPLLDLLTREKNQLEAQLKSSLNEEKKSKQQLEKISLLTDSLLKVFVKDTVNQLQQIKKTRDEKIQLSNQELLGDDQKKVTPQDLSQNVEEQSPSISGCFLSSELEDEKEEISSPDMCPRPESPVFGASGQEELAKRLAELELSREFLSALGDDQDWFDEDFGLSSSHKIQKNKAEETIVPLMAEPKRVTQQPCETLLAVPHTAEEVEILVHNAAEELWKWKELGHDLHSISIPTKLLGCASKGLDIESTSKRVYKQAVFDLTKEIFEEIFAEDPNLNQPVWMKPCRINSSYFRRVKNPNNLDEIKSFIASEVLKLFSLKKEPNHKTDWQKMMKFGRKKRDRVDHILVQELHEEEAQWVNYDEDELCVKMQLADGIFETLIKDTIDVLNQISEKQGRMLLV
UniProt Q8NHZ8, whole entry, looked up: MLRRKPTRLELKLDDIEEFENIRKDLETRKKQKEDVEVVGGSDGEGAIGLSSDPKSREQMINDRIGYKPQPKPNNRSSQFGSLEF
UniProt Q6ZMG9: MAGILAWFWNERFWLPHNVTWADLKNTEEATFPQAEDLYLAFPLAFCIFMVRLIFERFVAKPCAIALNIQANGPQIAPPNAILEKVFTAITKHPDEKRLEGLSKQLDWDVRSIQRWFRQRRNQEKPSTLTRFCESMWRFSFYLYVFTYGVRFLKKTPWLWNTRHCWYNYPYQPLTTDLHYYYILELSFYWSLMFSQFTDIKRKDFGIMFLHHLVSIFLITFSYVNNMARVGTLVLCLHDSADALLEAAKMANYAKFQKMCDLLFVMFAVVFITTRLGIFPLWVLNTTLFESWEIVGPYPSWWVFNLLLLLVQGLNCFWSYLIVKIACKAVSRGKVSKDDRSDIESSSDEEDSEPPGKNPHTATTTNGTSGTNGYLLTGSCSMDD
UniProt Q6P2H3: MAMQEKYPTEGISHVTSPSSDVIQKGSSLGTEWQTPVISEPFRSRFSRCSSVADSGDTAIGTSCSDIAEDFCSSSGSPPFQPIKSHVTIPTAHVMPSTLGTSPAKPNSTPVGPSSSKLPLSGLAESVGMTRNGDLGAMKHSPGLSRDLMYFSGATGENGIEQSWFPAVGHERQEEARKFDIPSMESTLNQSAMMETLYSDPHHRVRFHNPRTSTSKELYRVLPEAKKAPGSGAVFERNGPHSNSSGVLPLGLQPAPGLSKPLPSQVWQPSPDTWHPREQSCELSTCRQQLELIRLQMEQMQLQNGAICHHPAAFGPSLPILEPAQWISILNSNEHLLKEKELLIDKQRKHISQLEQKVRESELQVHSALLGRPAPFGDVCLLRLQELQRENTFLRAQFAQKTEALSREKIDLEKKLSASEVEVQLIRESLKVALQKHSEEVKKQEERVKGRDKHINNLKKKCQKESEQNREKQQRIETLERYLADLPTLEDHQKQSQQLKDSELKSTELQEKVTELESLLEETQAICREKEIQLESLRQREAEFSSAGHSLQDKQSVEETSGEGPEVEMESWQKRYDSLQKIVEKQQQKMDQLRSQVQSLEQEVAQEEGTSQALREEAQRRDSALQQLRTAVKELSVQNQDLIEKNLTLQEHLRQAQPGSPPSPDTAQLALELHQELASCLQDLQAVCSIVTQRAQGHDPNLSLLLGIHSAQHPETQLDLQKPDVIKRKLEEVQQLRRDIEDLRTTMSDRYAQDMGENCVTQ
UniProt P30260, whole entry, looked up: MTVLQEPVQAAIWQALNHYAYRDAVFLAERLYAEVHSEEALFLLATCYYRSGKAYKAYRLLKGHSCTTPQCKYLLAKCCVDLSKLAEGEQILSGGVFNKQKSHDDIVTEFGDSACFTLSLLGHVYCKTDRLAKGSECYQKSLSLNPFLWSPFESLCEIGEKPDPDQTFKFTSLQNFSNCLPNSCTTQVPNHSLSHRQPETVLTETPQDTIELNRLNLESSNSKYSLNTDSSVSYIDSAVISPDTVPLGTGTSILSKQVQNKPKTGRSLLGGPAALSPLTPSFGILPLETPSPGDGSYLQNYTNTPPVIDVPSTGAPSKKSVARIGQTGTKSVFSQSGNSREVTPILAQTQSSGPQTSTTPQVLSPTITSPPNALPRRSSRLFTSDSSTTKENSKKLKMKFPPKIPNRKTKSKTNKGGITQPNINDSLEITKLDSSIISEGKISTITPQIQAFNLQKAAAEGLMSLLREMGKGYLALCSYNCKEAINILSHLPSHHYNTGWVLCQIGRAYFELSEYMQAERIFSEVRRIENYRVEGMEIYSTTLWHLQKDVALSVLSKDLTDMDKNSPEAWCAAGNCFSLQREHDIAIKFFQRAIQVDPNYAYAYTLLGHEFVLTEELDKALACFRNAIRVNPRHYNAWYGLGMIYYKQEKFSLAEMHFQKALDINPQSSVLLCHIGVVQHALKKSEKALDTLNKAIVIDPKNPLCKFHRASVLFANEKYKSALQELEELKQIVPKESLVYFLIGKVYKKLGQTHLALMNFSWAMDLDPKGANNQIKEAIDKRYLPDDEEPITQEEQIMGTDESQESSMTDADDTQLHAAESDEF

How the values were obtained:
Test in all cases: log2 fold change, soluble protein after heating vs DMSO (PISA); higher = thermal stabilisation; K562 lysate, 10 uM; active = over 0.2 and 3.5 SD of the protein, either way, in both replicates (recomputed)
vemurafenib = compound: CCCS(=O)(=O)Nc1ccc(F)c(C(=O)c2c[nH]c3ncc(-c4ccc(Cl)cc4)cc23)c1F [vemurafenib]
Summary of the method: (§1)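 Dounce homogenisation of K562 pellets in PBS pH 7.4 with 1 mM MgCl2 produced a crude extract, used at 1 mg/mL protein. Exposure to 10 μM compound lasted 30 min, and aliquots were then heated for 3 min across 48°C-58°C, pooled and brought to 0.5% NP-40 at 4°C. The supernatant after 21,000xg for 90 min was quantified by TMTpro 16plex LC-MS/MS with channel sums equalised. Duplicate values are given as log-two fold change in thermal stability relative to solvent controls.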

[1] = compound: CCCS(=O)(=O)Nc1ccc(F)c(C(=O)c2c[nH]c3ncc(Cl)cc23)c1F
Summary of the method: as §1

barasertib = compound: CCN(CCCOc1ccc2c(Nc3cc(CC(=O)Nc4cccc(F)c4)[nH]n3)ncnc2c1)CCOP(=O)(O)O [barasertib]
Summary of the method: as §1

[2] = compound: CC[C@@H]1C(=O)N(C)c2cnc(Nc3ccc(C(=O)NC4CCN(C)CC4)cc3OC)nc2N1C1CCCC1
Summary of the method: as §1

volasertib = compound: CC[C@@H]1C(=O)N(C)c2cnc(Nc3ccc(C(=O)N[C@H]4CC[C@H](N5CCN(CC6CC6)CC5)CC4)cc3OC)nc2N1C(C)C [volasertib]
Summary of the method: as §1

[3] = compound: CCn1c(C(=O)N(C2CC2)C2CC2)cc2c3c(ncn3C)c(Nc3cc(C)n(C)n3)nc21
Summary of the method: as §1

[4] = compound: CCn1cc(-c2ccnc3[nH]c(-c4cccc(CN(C)C)c4)cc23)c(-c2ccc(NC(=O)N(C)C)cc2)n1
Summary of the method: as §1

[5] = compound: CN1CCC(CNc2ccc3ncc(-c4cccc(OC(F)(F)F)c4)n3n2)CC1
Summary of the method: as §1

saracatinib = compound: CN1CCN(CCOc2cc(OC3CCOCC3)c3c(Nc4c(Cl)ccc5c4OCO5)ncnc3c2)CC1 [saracatinib]
Summary of the method: as §1

sotrastaurin = compound: CN1CCN(c2nc(C3=C(c4c[nH]c5ccccc45)C(=O)NC3=O)c3ccccc3n2)CC1 [sotrastaurin]
Summary of the method: as §1

alvocidib = compound: CN1CC[C@H](c2c(O)cc(O)c3c(=O)cc(-c4ccccc4Cl)oc23)[C@H](O)C1 [alvocidib]
Summary of the method: as §1

Tubastatin A = compound: CN1CCc2c(c3ccccc3n2Cc2ccc(C(=O)NO)cc2)C1 [Tubastatin A]
Summary of the method: as §1

[6] = compound: CNC(=O)C1=CC=CC=C1NC2=NC(=NC=C2Cl)NC3=C(C=C(C=C3)N4CCOCC4)OC
Summary of the method: as §1

defactinib = compound: CNC(=O)c1ccc(Nc2ncc(C(F)(F)F)c(NCc3nccnc3N(C)S(C)(=O)=O)n2)cc1 [defactinib]
Summary of the method: as §1

[7] = compound: CNc1nc(-c2ccc3c(N)n[nH]c3c2)cc(N2C[C@@H](C(=O)NC3CCCCC3)CC[C@H]2C)n1
Summary of the method: as §1

encorafenib = compound: COC(=O)N[C@@H](C)CNc1nccc(-c2cn(C(C)C)nc2-c2cc(Cl)cc(NS(C)(=O)=O)c2F)n1 [encorafenib]
Summary of the method: as §1

[8] = compound: COC(=O)[C@H](CCSC)NC(=O)C1=C(C=C(C=C1)NC[C@H](CS)N)C2=CC=CC=C2
Summary of the method: as §1

alisertib = compound: COc1cc(Nc2ncc3c(n2)-c2ccc(Cl)cc2C(c2c(F)cccc2OC)=NC3)ccc1C(=O)O [alisertib]
Summary of the method: as §1

[9] = compound: COc1cc2nc(-c3cc(F)ccc3O)nc(N[C@@H]3CNC[C@H]3C(C)(C)O)c2cc1OC
Summary of the method: as §1

gefitinib = compound: COc1cc2ncnc(Nc3ccc(F)c(Cl)c3)c2cc1OCCCN1CCOCC1 [gefitinib]
Summary of the method: as §1

Row | Target | log2 fold change (vemurafenib) | log2 fold change [1] | log2 fold change (barasertib) | log2 fold change [2] | log2 fold change (volasertib) | log2 fold change [3] | log2 fold change [4] | log2 fold change [5] | log2 fold change (saracatinib) | log2 fold change (sotrastaurin) | log2 fold change (alvocidib) | log2 fold change (Tubastatin A) | log2 fold change [6] | log2 fold change (defactinib) | log2 fold change [7] | log2 fold change (encorafenib) | log2 fold change [8] | log2 fold change (alisertib) | log2 fold change [9] | log2 fold change (gefitinib)
1 | CENPK (UniProt Q9BS16) | inactive: 0.094 | inactive: 0.046 | inactive: 0.126 | inactive: 0.047 | inactive: 0.137 | inactive: 0.031 | inactive: 0.041 | inactive: -0.004 | inactive: 0.032 | inactive: 0.038 | inactive: -0.036 | inactive: 0.006 | inactive: -0.008 | inactive: -0.003 | inactive: 0.016 | inactive: 0.006 | inactive: 0.002 | inactive: -0.015 | inactive: 0.041 | inactive: -0.063
2 | CDK5RAP2 (UniProt Q96SN8) | inactive: -0.023 | inactive: -0.186 | inactive: 0.071 | inactive: 0.029 | inactive: -0.3 | inactive: 0.001 | inactive: 0.016 | inactive: -0.067 | inactive: 0.027 | inactive: -0.008 | inactive: 0.018 | inactive: -0.15 | inactive: 0.009 | inactive: 0.037 | inactive: -0.007 | inactive: 0.045 | inactive: 0.012 | inactive: -0.007 | inactive: -0.144 | inactive: -0.021
3 | CDCA5 (UniProt Q96FF9) | inactive: -0.045 | inactive: 0.042 | inactive: -0.061 | inactive: 0.142 | inactive: 0.04 | inactive: -0.009 | inactive: 0.029 | inactive: -0.024 | inactive: -0.041 | inactive: -0.108 | inactive: 0.017 | inactive: -0.208 | inactive: 0.06 | inactive: 0.029 | inactive: 0.073 | inactive: 0.094 | inactive: 0.004 | inactive: -0.158 | inactive: -0.044 | inactive: -0.194
4 | CFAP36 (UniProt Q96G28) | inactive: -0.041 | inactive: 0.043 | inactive: -0.014 | inactive: 0.121 | inactive: -0.007 | inactive: -0.042 | inactive: 0.12 | inactive: -0.014 | inactive: -0.011 | inactive: -0.019 | inactive: 0.019 | inactive: 0.065 | inactive: 0.027 | inactive: 0.016 | inactive: 0.033 | inactive: 0.017 | inactive: -0.004 | inactive: -0.032 | inactive: 0.05 | inactive: 0.017
5 | CFDP1 (UniProt Q9UEE9) | inactive: -0.02 | inactive: -0.008 | inactive: -0.066 | inactive: 0.025 | inactive: 0.039 | inactive: -0.015 | active: -0.311 | inactive: 0.105 | inactive: -0.007 | inactive: 0.024 | inactive: -0.104 | inactive: 0.057 | inactive: 0.042 | inactive: -0.01 | inactive: -0.051 | inactive: 0.005 | inactive: -0.021 | inactive: -0.013 | inactive: 0.015 | inactive: -0.005
6 | CDC42EP1 (UniProt Q00587) | inactive: 0.079 | inactive: -0.041 | inactive: -0.09 | inactive: 0.011 | inactive: -0.079 | inactive: -0.086 | inactive: -0.048 | inactive: -0.173 | inactive: 0.138 | inactive: -0.006 | inactive: -0.014 | inactive: 0.019 | inactive: 0.006 | inactive: -0.095 | inactive: 0.056 | inactive: 0.087 | inactive: 0.001 | inactive: 0.117 | inactive: 0.023 | inactive: 0.103
7 | CDK7 (UniProt P50613) | inactive: 0.003 | inactive: 0.007 | inactive: -0.001 | inactive: 0.133 | inactive: 0.005 | inactive: -0.009 | inactive: -0.008 | inactive: 0.025 | inactive: -0.017 | inactive: 0.017 | inactive: -0.004 | inactive: 0.021 | inactive: -0.002 | inactive: 0.002 | inactive: 0.014 | inactive: 0.013 | inactive: -0.044 | inactive: -0.004 | inactive: 0.005 | inactive: -0.01
8 | CDK9 isoform 2 (UniProt P50750) | inactive: -0.117 | inactive: -0.064 | inactive: -0.025 | inactive: 0.009 | inactive: 0.002 | inactive: 0.175 | inactive: -0.203 | inactive: 0.079 | inactive: 0.005 | active: 0.34 | active: 0.578 | inactive: -0.042 | inactive: 0.024 | active: 0.392 | inactive: 0.016 | inactive: -0.008 | inactive: -0.033 | inactive: -0.003 | inactive: 0.191 | inactive: 0.008
9 | CDR2L (UniProt Q86X02) | inactive: 0.243 | inactive: 0.05 | inactive: 0.01 | inactive: 0.159 | inactive: -0.02 | inactive: -0.012 | inactive: 0.107 | inactive: 0.042 | inactive: -0.062 | inactive: 0.038 | inactive: 0.035 | inactive: -0.024 | inactive: -0.012 | inactive: -0.088 | inactive: 0.018 | inactive: -0.04 | inactive: -0.124 | inactive: 0.02 | inactive: 0.023 | inactive: 0.14
10 | CEP350 (UniProt Q5VT06) | inactive: -0.03 | inactive: -0.009 | inactive: 0.03 | inactive: 0.008 | inactive: -0.009 | inactive: 0.041 | inactive: 0.104 | inactive: -0.025 | inactive: 0.019 | inactive: 0.051 | inactive: -0.034 | inactive: -0.077 | inactive: 0.007 | inactive: -0.029 | inactive: -0.045 | inactive: 0.049 | inactive: -0.026 | inactive: -0.002 | inactive: -0.026 | inactive: 0.078
11 | CDC26 (UniProt Q8NHZ8) | inactive: 0.149 | inactive: -0.011 | inactive: 0.143 | inactive: 0.033 | inactive: 0.024 | inactive: -0.004 | inactive: 0.005 | inactive: 0.027 | inactive: 0.043 | inactive: -0.055 | inactive: -0.002 | inactive: 0.006 | inactive: -0.008 | inactive: 0.135 | inactive: -0.033 | inactive: 0.015 | inactive: -0.214 | inactive: 0.024 | inactive: -0.036 | inactive: 0.076
12 | CEP76 (UniProt Q8TAP6) | inactive: -0.099 | inactive: -0.023 | inactive: 0.085 | inactive: -0.093 | inactive: 0 | inactive: -0.026 | inactive: -0.04 | inactive: 0.053 | inactive: 0.047 | inactive: 0.085 | inactive: -0.031 | inactive: -0.015 | inactive: 0.03 | inactive: 0.084 | inactive: -0.023 | inactive: -0.006 | inactive: 0.005 | inactive: 0.002 | inactive: 0 | inactive: 0.001
13 | CDC7 (UniProt O00311) | inactive: 0.065 | inactive: 0.073 | inactive: -0.005 | inactive: 0.039 | inactive: -0.097 | inactive: -0.003 | inactive: -0.01 | inactive: -0.073 | inactive: 0.004 | inactive: 0.036 | inactive: -0.081 | inactive: -0.112 | inactive: 0.077 | inactive: 0.007 | inactive: 0.042 | inactive: 0.011 | inactive: 0.078 | inactive: -0.059 | inactive: -0.04 | inactive: -0.036
14 | CERS6 isoform 2 (UniProt Q6ZMG9) | inactive: -0.03 | inactive: 0.146 | inactive: -0.074 | inactive: -0.18 | inactive: 0.03 | inactive: -0.05 | inactive: -0.097 | inactive: 0.175 | inactive: -0.141 | inactive: 0.118 | inactive: 0.001 | inactive: 0 | inactive: 0.099 | inactive: 0.019 | inactive: -0.127 | inactive: 0.027 | inactive: -0.119 | inactive: 0.009 | inactive: 0.102 | inactive: 0.027
15 | CEP85 isoform 2 (UniProt Q6P2H3) | inactive: 0.016 | inactive: 0.145 | inactive: 0.001 | inactive: 0.078 | inactive: -0.031 | inactive: 0.007 | inactive: 0.159 | inactive: -0.078 | inactive: 0.043 | inactive: 0.001 | inactive: 0.033 | inactive: -0.056 | inactive: 0.037 | inactive: 0.063 | inactive: -0.01 | inactive: 0.047 | inactive: -0.17 | inactive: 0.034 | inactive: 0.011 | inactive: -0.013
16 | CDC27 isoform 2 (UniProt P30260) | inactive: -0.007 | inactive: 0.011 | inactive: 0.013 | inactive: -0.024 | inactive: -0.022 | inactive: 0.017 | inactive: -0.015 | inactive: -0.042 | inactive: 0.015 | inactive: -0.017 | inactive: 0.013 | inactive: -0.096 | inactive: 0.047 | inactive: 0.001 | inactive: -0.013 | inactive: 0.022 | inactive: -0.017 | inactive: -0.015 | inactive: -0.009 | inactive: -0.017

Full records, quoted from the list. Order of values: log2 fold change (vemurafenib) | log2 fold change [1] | log2 fold change (barasertib) | log2 fold change [2] | log2 fold change (volasertib) | log2 fold change [3] | log2 fold change [4] | log2 fold change [5] | log2 fold change (saracatinib) | log2 fold change (sotrastaurin) | log2 fold change (alvocidib) | log2 fold change (Tubastatin A) | log2 fold change [6] | log2 fold change (defactinib) | log2 fold change [7] | log2 fold change (encorafenib) | log2 fold change [8] | log2 fold change (alisertib) | log2 fold change [9] | log2 fold change (gefitinib)
CDC27 isoform 2 (UniProt P30260) in the list: inactive: -0.007 | inactive: 0.011 | inactive: 0.013 | inactive: -0.024 | inactive: -0.022 | inactive: 0.017 | inactive: -0.015 | inactive: -0.042 | inactive: 0.015 | inactive: -0.017 | inactive: 0.013 | inactive: -0.096 | inactive: 0.047 | inactive: 0.001 | inactive: -0.013 | inactive: 0.022 | inactive: -0.017 | inactive: -0.015 | inactive: -0.009 | inactive: -0.017
CDK9 isoform 2 (UniProt P50750) in the list: inactive: -0.117 | inactive: -0.064 | inactive: -0.025 | inactive: 0.009 | inactive: 0.002 | inactive: 0.175 | inactive: -0.203 | inactive: 0.079 | inactive: 0.005 | active: 0.34 | active: 0.578 | inactive: -0.042 | inactive: 0.024 | active: 0.392 | inactive: 0.016 | inactive: -0.008 | inactive: -0.033 | inactive: -0.003 | inactive: 0.191 | inactive: 0.008
